# In all, about 340,000 compounds went through this assay and about 170 (0.05%) were called active. This list was built around the results that the source calls inconclusive (neither active nor inactive); the mix of calls is not that of the screen. Calls come from the whole dose curve; as a rule, active = well fitted inhibition curve with a large enough effect in the signal ratio, with a control signal flat (not every such curve was filed as active); inconclusive = small, poorly fitted or top-dose-only effect, or effect the other way, or a change in a side signal; inactive = flat fitted curve, though single readings scatter; the % refers to the signal ratio. Potencies of inconclusive entries are doubtful fits and often do not repeat.
# Test: qHTS Assay to Find Inhibitors of Chronic Active B-Cell Receptor Signaling;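 for activity change, negative = inhibition: plate controls were basal doxycycline-induced cells for no effect and cells given 10 µM MG132 for full effect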
# Conditions: ABC-DLBCL IkBa-CBG/CBR reporter, luminescence ratio (green luciferase fused to IkBa over red control in TMD8 lymphoma cells), 4 h; activity change, negative = inhibition: at 46.1 µM (top of the series)
# Procedure, shortened: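 Cell line TMD8 (human ABC DLBCL), stably expressing tet-inducible CBG68-IkBa fusion and CBR; IMDM/0.5% FBS; cpd up to 46 uM; dox induction, 4 h, 37C/5% CO2; dual luminescence; green/red ratio; MG132 control.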
# Potency is the fitted concentration of half-maximal effect.
Structure (SMILES),Potency,"activity change, negative = inhibition"
Cc1cc(C(=O)N2CCN(CCc3ccccc3)CC2)no1,"inconclusive: 29.1 µM [rising, partial curve, poor fit]",–
CCCCNC(=O)N(CC)c1c(N)n(Cc2ccccc2)c(=O)[nH]c1=O,–,inconclusive: 16.2%
Clc1ccc(OCCOCCNCc2ccccc2)cc1Cl,–,inconclusive: -15.1%
O=C(NC1CCN(Cc2ccccc2)C1)c1cccc(S(=O)(=O)N2CCOCC2)c1 (stereo not given),–,inactive
O=C(CSc1ncnc2ccccc12)Nc1ccc2c(c1)OCO2,"inconclusive: 20.6 µM [falling, partial curve, poor fit]",–
CC(C)c1ccc(NC(=O)c2ccc(F)c(S(=O)(=O)N3CCc4ccccc43)c2)cc1,–,inactive
O=C1CCC/C(=N/NC(=O)c2ccc(NS(=O)(=O)c3cccs3)cc2)C1,"inconclusive: 12.6 µM [falling, partial curve]",–
CC1CC(C)CN(S(=O)(=O)c2ccc(C(=O)N(C)Cc3ccccc3)cc2)C1 (stereo not given),–,inactive
CCOC(=O)c1[nH]c(CN2CCN(c3ccc(OC)cc3)CC2)c(C(=O)OCC)c1C,–,inconclusive: 0.0532%
CCN(CC(=O)N1CCOCC1)S(=O)(=O)c1ccccc1,–,inactive
Cc1onc(-c2c(Cl)cccc2Cl)c1C(=O)c1ccc(F)cc1,–,inactive
COC(=O)c1ccc(CN2C(=O)NC3(CCC(C)CC3)C2=O)cc1 (stereo not given),"inconclusive: 35.5 µM [falling, partial curve, poor fit]",–
COc1ccc2nc(SCC(=O)C(C)(C)C)[nH]c2c1,–,inconclusive: 21.8%
CCC(C)NC(=O)CSc1nc2n[nH]c(C)c2c(=N)n1-c1cc(Cl)ccc1C (stereo not given),–,inconclusive: -13.9%
O=C(NCc1ccccn1)C(=O)Nc1cccc2ccccc12,"inconclusive: 12.6 µM [falling, partial curve]",–
COc1ccc(-c2ccc3c(c2)S(=O)(=O)c2cccc(C(=O)NCCOc4ccccc4)c2C3=O)cc1OC,"inconclusive: 0.00411 µM [falling, full curve, poor fit]",–
O=C(Nc1nnc(C2CC2)s1)c1cccs1,–,inconclusive: -12.9%
COC(=O)C1=C(C)NC(=O)/C1=C\c1ccc2c(c1)OCO2,–,inconclusive: 0.538%
O=C(Nc1cccc(Cl)c1)Nc1cc(S(=O)(=O)N2CCOCC2)ccc1N1CCCC1,–,inconclusive: 9.57%
COC(=O)c1ccc(CN(C)S(=O)(=O)c2cccs2)cc1,–,inactive
CC(C)CC1(C)NC(=O)N(CC(=O)Nc2cccc(S(=O)(=O)N(C)c3ccccc3)c2)C1=O (stereo not given),–,inconclusive: -8.11%
C[C@H](CO)N1C[C@H](C)[C@@H](CN(C)Cc2ccc(C(=O)O)cc2)Oc2c(NC(=O)C3CC3)cccc2C1=O,–,inconclusive: -4.82%
Cc1cn(C)c(CC(=O)N2CCN(c3cccc(Cl)c3)CC2)c1C(=O)O,–,inconclusive: -25.3%
Cc1ccc(-c2nc(C#N)c(N3CCC(C)CC3)o2)cc1,–,inconclusive: 5.39%
COc1ccc(Nc2nnc(-c3ccc(O)cc3)c3ccccc23)cc1,"inconclusive: 11.2 µM [falling, partial curve]",–
OCCC1CN(Cc2c(O)ccc3ccccc23)CCN1CCc1ccccc1 (stereo not given),–,inconclusive: -26.9%
C/C=C\C(=O)Nc1cccc(C2=NOC3(C2)C[C@@H](C(N)=O)N(C(=O)CC(c2ccccc2)c2ccccc2)C3)c1 (stereo not given in full),–,inconclusive: 0.473%

# Record cards, from the list above. Order of values: Potency | activity change, negative = inhibition
# COC(=O)c1ccc(CN2C(=O)NC3(CCC(C)CC3)C2=O)cc1 (stereo not given) as listed: inconclusive: 35.5 µM [falling, partial curve, poor fit] | –
# COc1ccc(Nc2nnc(-c3ccc(O)cc3)c3ccccc23)cc1 as listed: inconclusive: 11.2 µM [falling, partial curve] | –

# Next part

Structure (SMILES),Potency,"activity change, negative = inhibition"
CCOC(=O)C1(C)C(C(=O)OC)=C(c2ccc(OC)cc2)c2ccccc2N1C(=O)OC (stereo not given),"inconclusive: 29.1 µM [falling, single point]",–
CCN1CCN(Cc2ccc(NC(=O)c3cc(NC(=O)c4cc(-c5ccc(OC)cc5)n[nH]4)cc(OC)c3)cc2C(F)(F)F)CC1,–,inconclusive: 5.02%
Cc1ccc(NC(=O)CN2CCN(S(=O)(=O)c3ccc(C(C)C)cc3)CC2)cc1F,"inconclusive: 0.794 µM [rising, full curve, poor fit]",–
COc1ccc(OC)c(-c2nnc3n2N=C(c2ccc(OC)c(OC4CCCC4)c2)CS3)c1,"inconclusive: 11.6 µM [cytotoxic, partial curve]",–
O=C(CN1C(=O)C2CC=CCC2C1=O)Nc1nc(-c2ccc(F)cc2)cs1 (stereo not given),–,inconclusive: 18.3%
O=C(Nc1nc(-c2ccncc2)cs1)C1c2ccccc2Oc2ccccc21,–,inconclusive: 5.17%
CCC(=O)N1CCc2cc(S(=O)(=O)CCC(=O)N3CCN(c4ccc(Cl)cc4)CC3)ccc21,–,inactive
COc1ccc(NC(=O)c2c(NCc3sccc3C)sc3c2CCCC3)c(OC)c1,–,inconclusive: -0.537%
CC(=O)C(Sc1nccc(-c2cccs2)n1)C(C)=O,–,inactive
Cc1ccc(NC(=O)COC(=O)C(NS(=O)(=O)c2ccc(Cl)cc2)C(C)O)cc1C (stereo not given),–,inconclusive: -6.49%
CC(=O)Nc1ccc(NC(=O)c2ccc(-c3ccccc3Cl)o2)cc1,–,inconclusive: 9.11%
CCOc1ccc(NC(=O)c2c(NC(=O)CNCCN3CCOCC3)sc3c2CCC3)cc1,–,inconclusive: 1.47%
Cc1ccc(NC(=O)c2cccc(N3C(=O)C4C5C=CC(C5)C4C3=O)c2)cc1C (stereo not given),"inconclusive: 6.31 µM [falling, single point]",–
O=[N+]([O-])c1ccc2nc(NS(=O)(=O)c3ccccc3[N+](=O)[O-])sc2c1,–,inactive
Cc1nc2ccc(NS(=O)(=O)c3ccc(F)c(F)c3F)cc2s1,–,inactive
COc1cc(-c2nc3ccc4ccccc4c3c3c2CCC3)ccc1O,–,inactive
CC1=CC(C)(C)Nc2ccc(Cc3ccc4c(c3)C(C)=CC(C)(C)N4)cc21,–,inactive
Cc1ccccc1NC(=O)CCN1CCCC1,–,inconclusive: 8.84%
CCN(CC)P(=O)(Nc1ccc(C)cc1Br)c1ccc(N(C)C)cc1NC(=O)c1ccco1 (stereo not given),–,inconclusive: -0.736%
CCOc1ccc(N2C(=O)CC(SCCN)C2=O)cc1 (stereo not given),–,inactive
CC(C)(C)c1ccc(-c2ncccc2O)cc1,–,inconclusive: 8.72%
Cn1c(=O)c2c(nc(CN3CCC(C(N)=O)CC3)n2CCCc2ccccc2)n(C)c1=O,–,inconclusive: 3.39%
Fc1ccc(CNC(=S)NCc2cccc(Cl)c2)cc1,–,inactive
COC(=O)C1=NN(c2ccc(C)cc2)C2C(=O)N(c3ccccc3OC)C(=O)C12 (stereo not given),–,inactive
NS(=O)(=O)c1ccc(CCNC(=O)COC(=O)Cc2c(F)cccc2Cl)cc1,–,inactive
COc1ccc(S(=O)(=O)Nc2ccc(Cc3ccncc3)cc2)cc1C,"inconclusive: 20 µM [falling, partial curve, poor fit]",–
O=C(Nc1ccc2c(c1)C(=O)NC2=O)c1ccc2ncsc2c1,–,inconclusive: -13.7%

Structure (SMILES),Potency,"activity change, negative = inhibition"
NS(=O)(=O)c1ccc(NC(=O)c2ccc3c(c2)CCCC3)cc1,–,inactive
Clc1ccccc1CN1CCC(Cc2ccccc2)CC1,–,inconclusive: 20.7%
O=S(=O)(c1ccc2ccccc2c1)N1CCCOC1,–,inconclusive: 2.9%
Cc1c(C(=O)C(=O)NCCC2=CCCCC2)c2ccccc2n1C,–,inconclusive: 8.39%
Cc1ccc(S(=O)(=O)N2CCCC2C(=O)OCc2ccccc2)cc1 (stereo not given),–,inactive
COc1ccc(NC(=O)C2C(=O)N(C)C3(C)CC2c2ccccc2O3)cc1 (stereo not given),–,inactive
CCOc1ccccc1NC=C1C(=O)OC(C)(C)OC1=O,–,inconclusive: 14.4%
O=C(Cn1c(=O)cnc2ccccc21)NC1CCC(O)CC1 (stereo not given),–,inactive
COc1ccc(NC(=O)c2cccc(-n3c(C)ccc3C)c2)c(OC)c1,"inconclusive: 20.6 µM [falling, partial curve]",–
COc1ccc(-c2nsc(SCC(=O)NCc3ccc4c(c3)OCO4)n2)cc1,–,inconclusive: 5.35%
COc1cccc(NC(=O)CSC2=Nc3ccccc3C3=NC(CCC(=O)NCCc4ccccc4)C(=O)N23)c1 (stereo not given),–,inactive
COc1cccc(/C=C2\SC(=S)N(CCC(=O)N3CCCCC3CCO)C2=O)c1 (stereo not given),"inconclusive: 31.6 µM [rising, single point]",–
N#C/C(=N\Nc1ccc(Br)cc1)C(=N)N1CCOCC1,–,inconclusive: -2.41%
Cc1ccc(/C=C2\SC(=S)N(C3CCS(=O)(=O)C3)C2=O)o1 (stereo not given),"inconclusive: 11.2 µM [falling, partial curve, poor fit]",–
O=C(c1cnn(-c2cccc(F)c2)c1)c1ccccc1O,"inconclusive: 35.5 µM [falling, single point]",–
Cc1cccc(/C=N/NC(=O)Cc2ccc(Cl)cc2)c1O,–,inconclusive: -0.149%
O=C(Nc1ccccc1)C(=O)Nc1ccc2c(c1)N(C(=O)C1CC1)CCC2,"inconclusive: 23.1 µM [rising, single point]",–
O=C(/C=C\c1ccccc1)Nc1nccs1,"inconclusive: 20.6 µM [falling, single point]",–
COc1ccc(C(=O)C2CCCN(Cc3cnc(N4CCOCC4)s3)C2)cc1F (stereo not given),–,inconclusive: -6.2%
Cc1cccc(C)c1NC(=S)N(Cc1ccccc1)Cc1cccs1,–,inactive
COc1ccc2ccccc2c1/C=N/NC(=O)c1sc(N)c(C#N)c1C,"inconclusive: 14.6 µM [falling, partial curve, poor fit]",–
O=C1NC(=O)[C@@H]2C3c4ccccc4C=CN3[C@H](C(=O)c3cccs3)[C@H]12 (stereo not given in full),–,inconclusive: -8.51%
O=C1/C(=C/c2ccncc2)CCc2ccccc21,–,inconclusive: -22.5%
COc1ccc(N2CCN(C(c3ccccc3)c3sc4nc(-c5ccco5)nn4c3O)CC2)cc1 (stereo not given),–,inconclusive: 0.0447%
COCC1CCN(C(=O)C2CCC(=O)N(Cc3cccc(F)c3)C2)CC1 (stereo not given),–,inactive
CCOC(=O)N1CCN(S(=O)(=O)c2ccc3[nH]c(=O)oc3c2)CC1,–,inactive

# Source: PubChem BioAssay AID493014 (National Center for Advancing Translational Sciences (NCATS), 2011)
